{
  "source": "PubChem BioAssay AID1508600",
  "about": "(Functional Genomics Laboratory (NCATS/FGL), 2020)",
  "note": "Among all 53,000 sequences or so, about 3,700 (7%) were called active.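 How the source made its calls: active means gene knockdowns whose robust z-score for IL-1 alpha signal is at least 2 or at most -2, so actives lie on both sides; inactive means the rest.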 This is one part of the list.",
  "data": [
    {"test": "Components of the Cytosolic LPS Sensing Pathway: Gene Identification via Genome-wide siRNA Screen;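 further: robust z of the log signal after scaling to non-targeting control siRNA wells of the plate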", "conditions": "RAW264.7 macrophages, IL-1a HTRF, actives lie on both sides, screened at 100 nM (by protocol), cells primed 5 h with Pam3CSK4 first", "how_it_was_run": "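Using IL-1a HTRF as read-out, the screen measured release from RAW264.7 cells after 48h siRNA knockdown (100 nM), 5 h Pam3CSK4 priming and 24 h cytosolic LipidA. Values were expressed relative to negative-control wells as robust z-scores.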", "values": [
      {"sequence": "GGAACAAAGACAUUGCUUUTT against Sf3a3", "z-score": "active: -2.77"},
      {"sequence": "GGAGGUCGCUUCCUAUUACTT against Tat", "z-score": "inactive: -1.65"},
      {"sequence": "UAUACCUUAGUGCUGAGGGTT against Olfr736", "z-score": "inactive: -1.02"},
      {"sequence": "GCUGCAACAUGACAUGUCGTT against AU022252", "z-score": "inactive: -1.21"},
      {"sequence": "GCACUUAUGGACUUCCAGCTT against Cd2ap", "z-score": "inactive: 0.405"},
      {"sequence": "CGAAGAGUACUUUUUUAGUTT against Ccdc38", "z-score": "inactive: -0.672"},
      {"sequence": "GGCACUGGAACUAAUAUAUTT against Ormdl2", "z-score": "inactive: 0.167"},
      {"sequence": "GGAAUCUCCACCAUACAGGTT against Vmn1r26", "z-score": "inactive: -0.263"},
      {"sequence": "GGAACACAAGCACCUGCAUTT against Corin", "z-score": "inactive: -0.564"},
      {"sequence": "GGAAGAUCGGAGACAAAGUTT against Pmaip1", "z-score": "inactive: 0.98"},
      {"sequence": "CCACAUCGAGGACUGGUAGTT against Lage3", "z-score": "inactive: -0.108"},
      {"sequence": "GGACAAACAUUGGAUUGAUTT against Snrnp40", "z-score": "inactive: 1.17"},
      {"sequence": "GGAACCUAAACGAACAAGGTT against Col6a2", "z-score": "active: 2.18"},
      {"sequence": "GGCCAAAGCUGAUAUGACATT against Ankef1", "z-score": "active: 2.23"},
      {"sequence": "GGUUCUUCAGGCCACUGAUTT against Dnaaf2", "z-score": "inactive: 0.982"},
      {"sequence": "CCUAAAAGGAUCUUUCAUGTT against Cpa6", "z-score": "inactive: 0.117"},
      {"sequence": "GGCUAGAUUUCUGAUUCCCTT against Pigz", "z-score": "inactive: 0.906"},
      {"sequence": "GGAGUACAUCUUAGACAAATT against Tram2", "z-score": "inactive: 0.942"},
      {"sequence": "GGAGAAGCCAGGAGUUUACTT against Klk6", "z-score": "inactive: 1.71"},
      {"sequence": "GGGUCUUCACAUAUCUCAUTT against Tep1", "z-score": "inactive: 0.0251"},
      {"sequence": "CCCUACAAACCAUCUGGUUTT against Aga", "z-score": "inactive: -0.114"},
      {"sequence": "CCGUGGGUUUUUUGAAUCUTT against Slc6a1", "z-score": "active: 2.63"},
      {"sequence": "GGACAACACCUAUUUAGUGTT against Cdk5rap3", "z-score": "inactive: -1.51"},
      {"sequence": "GCGAAUGAUAGAUCCUGUCTT against Stx17", "z-score": "inactive: -0.227"},
      {"sequence": "GGAACACCAUCAAUAAACUTT against Tjap1", "z-score": "active: -2.09"},
      {"sequence": "GGAUACAUACUGGACAAAATT against Zfp934", "z-score": "inactive: -0.865"},
      {"sequence": "GGAAGAUGGCACUAUUCUCTT against Pomk", "z-score": "inactive: 0.385"},
      {"sequence": "GGUUAGUUGGCAAGUGUAATT against Cd1d1", "z-score": "inactive: 1.25"},
      {"sequence": "GCUAGAAAUGAGGUGCGCCTT against Mapkapk5", "z-score": "inactive: 0.537"},
      {"sequence": "GCGCAUGAAUUCGUGCAACTT against Hoxb6", "z-score": "inactive: 0.0509"}
    ]}
  ]
}
